Test results: paper PMC10799427
These are yes or no findings as the source states them, for the method shown. Binding seen in cells or lysates may run through a third protein. Some results given as binding are weak or reduced against the parent protein; the word gives no strength.

Sequences of proteins named here, by UniProt entry; tags and fusion partners are left off. A change or cut given only in a name is not applied to a line headed by its entry.
UniProt Q9NPD8: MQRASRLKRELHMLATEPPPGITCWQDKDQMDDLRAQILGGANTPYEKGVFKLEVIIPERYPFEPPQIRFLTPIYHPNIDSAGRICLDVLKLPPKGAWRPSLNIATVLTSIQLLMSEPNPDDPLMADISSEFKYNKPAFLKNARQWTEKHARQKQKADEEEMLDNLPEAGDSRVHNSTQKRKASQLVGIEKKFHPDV

Legend:
[1] = target: Ub-conjugating enzyme E2T (UBE2T) (human (endogenous in SKOV3/DDP and A2780/DDP)) (UniProt Q9NPD8); assay: co-IP; co-immunoprecipitation in SKOV3/DDP and A2780/DDP cells; which protein was precipitated is not told; no methods given
[2] = target: G3BP1 (human (endogenous in SKOV3/DDP and A2780/DDP)) (UniProt Q13283); assay: as above

Question: Which binding [1] does the source give for p53 protein (from UniProt P04637 1-393) here?
Answer: The binding was “binds”.

Question: What about the binding [2] of the same substance?
Answer: Its binding is “binds”.
